Measurements taken from PubChem BioAssay AID540256 (National Center for Advancing Translational Sciences (NCATS), 2011).
Hit rate of the full screen: of about 300,000 compounds, about 3,700 (1.2%) were called active. The inconclusive results got no clear call from the source; some entries with a clear call stand among them for comparison. The call rests on the fitted dose curve; tested in HEK293 cells. Where the call is inconclusive, the potency comes from a doubtful curve fit. Where a SMILES comes first, the peptide text is derived from it. [ ]: non-standard residue; d: D form. Inp = O=C(O)C1CCNCC1
On the % scale 0 is the no-effect control and ±100 the full control effect; potency means the concentration at half of the fitted maximal effect.

Test: qHTS for Inhibitors of binding or entry into cells for Lassa Virus; further: nearly all actives have a fitted effect of over 50% in size
Conditions: Lassa virus pseudotype entry inhibition, cell reporter; activity change, negative = inhibition: at 37.9 µM (top of the series) unless noted
For CNC(CC(=O)c1ccc([N+](=O)[O-])cc1)C(Cl)(Cl)Cl (configuration not stated), the Potency was inconclusive: 12.6 µM [inhibitor, partial curve, poor fit].
With COc1ccc2oc(C(=O)OC(C)C(=O)N(C)c3ccccc3)c(C)c2c1 (configuration not stated) the Potency was inconclusive: 20 µM [inhibitor, single point].
With Cc1cccc(NC(=O)c2ccc3c(c2)OCCO3)n1 the Potency was inconclusive: 8.91 µM [inhibitor, partial curve, poor fit].
For CC(C)/C=C/CN1CCN(CCCc2ccccc2)C(CCO)C1 (configuration not stated), the Potency was inconclusive: 1.26 µM [inhibitor, single point].
In the case of O=C(/C=C/Nc1ccc(Oc2ccccc2Cl)cc1)c1ccco1, the Potency is reported as inconclusive: 15.8 µM [inhibitor, single point].
For COC(=O)c1ccccc1NC(=O)COC(=O)c1ccc(C)c(NC(=O)c2ccco2)c1, the Potency was inconclusive: 16.4 µM [inhibitor, single point].
In the case of Cc1nc(Cl)cc(N/N=C/c2ccc(O)cc2O)n1, the Potency is reported as inconclusive: 35.5 µM [inhibitor, single point].
In the case of Cc1cccc(N2C(=O)c3cccc4c(N)ccc(c34)C2=O)c1, the Potency is reported as inconclusive: 10 µM [inhibitor, partial curve, poor fit].
With CCOc1ccc(N(C)S(=O)(=O)c2cc(-c3cc(C)no3)ccc2CC)cc1 the Potency was inconclusive: 1.12 µM [inhibitor, full curve, poor fit].
For CCn1cnc2cc(NCc3ccc(OC)cc3)ccc21, the “activity change, negative = inhibition” value was inactive: 18.1%.
For CCOc1ccc(NS(=O)(=O)c2ccc(C(=O)NCC(c3ccc(OC)cc3)N3CCOCC3)cc2)cc1 (configuration not stated), the Potency was inconclusive: 35.5 µM [inhibitor, single point].
In the case of CCOC(=O)c1ccccc1NC(=O)N1CCC(N2CCN(Cc3ccccc3)C(=O)C2=O)CC1, the “activity change, negative = inhibition” value is reported as inactive: 7.49% [at 46.1 µM].
With CNC(=O)COc1ccc(NC(=O)CCn2nc(-c3ccc(C)cc3)c3ccccc3c2=O)cc1 the “activity change, negative = inhibition” value was inactive: -2.39% [at 46.1 µM].
In the case of O=C(Cn1c(C(F)(F)F)nc2ccccc21)c1ccc(Br)cc1, the Potency is reported as inconclusive: 0.631 µM [activator, partial curve, poor fit].
For COc1ccc2oc(C(=O)OCC(=O)c3ccc4c(c3)OCCO4)c(C)c2c1, the Potency was active: 16.4 µM.
With CCC(C)OC(=O)/C(C#N)=C\c1ccc(-c2ccccc2Cl)o1 (configuration not stated) the “activity change, negative = inhibition” value was inactive: -5.84% [at 46.1 µM].
For Cc1cccc(N=C2NC(=O)/C(=C/c3cn(C)c4ccccc34)S2)c1, the Potency was inconclusive: 0.631 µM [inhibitor, full curve, poor fit].
For O=C(NCC(c1ccco1)N1CCc2ccccc21)c1cccc([N+](=O)[O-])c1 (configuration not stated), the Potency was active: 5.62 µM.
In the case of Cc1cc(NC(=O)CCC(=O)N(C2CC2)C2(C(=O)NC3CCCC3)CCC(C)CC2)no1 (configuration not stated), the “activity change, negative = inhibition” value is reported as inactive: 15.9%.
In the case of O=C(COC(=O)c1ccc(Cl)cc1)NC1CCCCCC1, the “activity change, negative = inhibition” value is reported as inactive: 12.9%.
With CC(=O)n1c(C=Nc2ccc(Cl)cc2)c(O)c2ccccc21 the “activity change, negative = inhibition” value was inactive: -3.12% [at 46.1 µM].
In the case of C=CC(=O)c1ccc(CCCCCC)cc1, the Potency is reported as inconclusive: 29.1 µM [inhibitor, single point].
With COc1ccc(-n2nc(C(=O)N3CCN(c4cccc(C)c4C)CC3)c3c4ccccc4n(C)c3c2=O)cc1 the “activity change, negative = inhibition” value was inactive: 13.3% [at 46.1 µM].
For COc1ccc(CNC(=S)Nc2ccccc2)cc1, the “activity change, negative = inhibition” value was inactive: 22.3%.
With CCOC(=O)c1ccc(N2C(=O)c3n[nH]c(-c4ccco4)c3C2c2ccc(O)c(OC)c2)cc1 (configuration not stated) the “activity change, negative = inhibition” value was inactive: -24.4% [at 46.1 µM].
In the case of O=C(N/N=C/c1cc(Br)ccc1OC(=O)c1ccc(Br)cc1)c1ccncc1, the Potency is reported as active: 5.62 µM.
For CCCCN(C)C(=O)C1CCN(CCCc2ccccc2)CC1, the “activity change, negative = inhibition” value was inactive: 0%.
With CCCC1=Nc2cc(C(=O)NCCc3ccc(OC)cc3OC)ccc2Sc2ccccc21 the Potency was inconclusive: 20 µM [inhibitor, single point].
In the case of C(=N\Nc1nc(-c2ccccc2)cs1)/c1cccnc1, the Potency is reported as inconclusive: 16.4 µM [inhibitor, partial curve, poor fit].
For Cc1ccc(NC(=O)CN2C(=O)CCn3nc(-c4cccn4C)cc32)cc1, the “activity change, negative = inhibition” value was inactive: 19% [at 46.1 µM].
In the case of Cc1ccccc1OCCOc1ccc([N+](=O)[O-])cc1/C=N/n1cnnc1, the Potency is reported as inconclusive: 35.5 µM [inhibitor, single point].
For Cc1ccccc1C(=O)Nc1ccc2c(C#N)c3nc4ccccc4nc3n2c1, the “activity change, negative = inhibition” value was inactive: 0.29%.
In the case of N[C@@H](Cc1ccccc1)C(=O)N1CCC(C(=O)NCC(=O)NCC(=O)O)CC1 (H-F[Inp]GG-OH), the Potency is reported as inconclusive: 11.2 µM [activator, single point].
For C/C(=N\Nc1nc(C)cc(-c2ccccc2)n1)c1ccc(C)o1, the Potency was inconclusive: 29.1 µM [inhibitor, single point].
In the case of CCCCCCCCCCn1ccc(=N)cc1, the Potency is reported as active: 1.78 µM.
For CCc1nc(-c2ccccc2O)n(-c2ccccc2)n1, the “activity change, negative = inhibition” value was inactive: -8.12%.
For CCOC(=O)Nc1ccc(S(=O)(=O)NCc2ccccc2)cc1, the Potency was inconclusive: 8.2 µM [inhibitor, partial curve].
For Cc1cccc(OCCOC(=O)c2c(-c3ccccc3)noc2C)c1, the Potency was inconclusive: 14.1 µM [inhibitor, partial curve, poor fit].
In the case of Cc1cc(=O)oc2cc(OCC(=O)c3ccc4c(c3)NC(=O)CO4)ccc12, the Potency is reported as inconclusive: 3.55 µM [inhibitor, single point].
For O=C(Nc1nc(-c2ccccc2)cs1)c1cccc(S(=O)(=O)N2CCN(Cc3ccccc3)CC2)c1, the Potency was inconclusive: 0.794 µM [inhibitor, full curve, poor fit].
For O=C(NC(C(=O)N/N=C/c1ccccn1)c1n[nH]c(=O)c2ccccc12)c1ccccc1 (configuration not stated), the “activity change, negative = inhibition” value was inactive: 13.6%.
In the case of CCn1nc(C)cc1C(=O)NC1CCCc2c1cnn2-c1ccc(C)c(C)c1 (configuration not stated), the Potency is reported as inconclusive: 10 µM [inhibitor, partial curve, poor fit].
For CC1CCc2c(C(=O)OCC(=O)Nc3cccc(S(=O)(=O)N4CCCCCC4)c3)csc2C1 (configuration not stated), the “activity change, negative = inhibition” value was inactive: 15.3%.
With COC(=O)c1c(C)[nH]c(C)c1-c1ccccc1Cl the “activity change, negative = inhibition” value was inactive: 14.8%.
With Cc1ccccc1C(=O)Nc1ccc2c(c1)CCCN2C(=O)c1cccs1 the Potency was active: 0.891 µM.
For O=Cc1ccc(N2Cc3ccccc3C2)cc1, the Potency was inconclusive: 7.08 µM [inhibitor, partial curve, poor fit].
In the case of COc1ccc2c(C)nc(N/C(N)=N/S(=O)(=O)c3ccc(C)cc3)nc2c1, the Potency is reported as inconclusive: 10 µM [inhibitor, partial curve, poor fit].
For CSc1ccc(CNC(=O)CCn2c(=O)c3cccn3c3ccc(F)cc32)cc1, the “activity change, negative = inhibition” value was inactive: 9.12% [at 46.1 µM].
In the case of CCCCN(C(=S)NC(=O)c1ccccc1)c1c(N)n(Cc2ccccc2)c(=O)[nH]c1=O, the Potency is reported as inconclusive: 5.8 µM [inhibitor, partial curve, poor fit].
With Cc1cccc(NC(=O)c2ccc(-c3nc(CSc4ccccc4)c(C)o3)cc2)c1C the “activity change, negative = inhibition” value was inactive: 19% [at 46.1 µM].
With Cc1nc2sc(C(N)=O)c(N)c2c(-c2ccc(Br)cc2)c1C(=O)Nc1ccc(Cl)cc1 the Potency was inconclusive: 7.94 µM [inhibitor, partial curve, poor fit].
With COc1ccc(OC)c(/C=N/NC(=O)CNC(=O)c2ccc(S(=O)(=O)N3CCOCC3)cc2)c1 the Potency was inconclusive: 11.2 µM [inhibitor, partial curve, poor fit].
With Cc1ccc(C(=O)Nc2onc3c2CCCC3)cc1 the Potency was inconclusive: 14.1 µM [inhibitor, single point].
For CC(=O)Nc1ccc(S(=O)(=O)N2CCN=C2SCc2cccc(C)c2)cc1, the Potency was inconclusive: 10 µM [inhibitor, partial curve].
For COc1ccc(Nc2nnc(SCC3CCCO3)s2)cc1 (configuration not stated), the Potency was inconclusive: 35.5 µM [inhibitor, single point].
In the case of O=c1c2ccccc2n(Cc2ccccc2F)c(=O)n1-c1cccc(F)c1, the “activity change, negative = inhibition” value is reported as inactive: -10.5% [at 46.1 µM].
With CCOc1ccc(Br)cc1S(=O)(=O)Nc1ccc(NC(=O)c2ccccc2C)cc1 the Potency was inconclusive: 17.8 µM [activator, single point].
With N#Cc1c(-c2ccccc2)cc(-c2ccccc2)nc1Br the Potency was inconclusive: 2.91 µM [activator, full curve, poor fit].
With O=C(Nc1ccccc1)N1CCC(c2ccccc2)C1 (configuration not stated) the Potency was inconclusive: 20 µM [inhibitor, partial curve, poor fit].
For c1nc2nc3c(c(N4CCOCC4)n2n1)CCCC3, the “activity change, negative = inhibition” value was inactive: -12.5%.
For O=C1CCCC/C1=C\Nc1ccc(O)cc1, the “activity change, negative = inhibition” value was inactive: 21%.
With O=C(/C=C/c1ccc2c(c1)OCO2)c1ccc[nH]1 the Potency was inconclusive: 1.26 µM [activator, single point].
With Cc1cccc([N+](=O)[O-])c1NC(=O)CN(Cc1ccccc1)Cc1ccccc1 the Potency was inconclusive: 29.1 µM [inhibitor, partial curve, poor fit].
For CCN(CC)S(=O)(=O)c1ccc2c(c1)nc(SCC(N)=O)n2-c1ccc(OC)cc1, the Potency was active: 12.6 µM.
In the case of Cc1cc(SC(C)C(=O)Nc2ncc(Cl)cc2Cl)nc2ccccc12 (configuration not stated), the Potency is reported as active: 5.8 µM.
With CCOc1ccccc1NC(=O)c1oc2ccccc2c1NC(=O)C1CCCO1 (configuration not stated) the Potency was inconclusive: 1 µM [inhibitor, single point].
With COc1ccc2oc(C(=O)N3CCc4ccccc43)c(C)c2c1 the Potency was inconclusive: 2.24 µM [inhibitor, full curve, poor fit].
With O=C(CN1CCc2ccccc2C1)Nc1cccc(S(=O)(=O)N2CCCC2)c1 the “activity change, negative = inhibition” value was inactive: -10.9%.
With NC(=O)c1ccc(C23CC4CC(CC(C4)C2)C3)o1 the Potency was inconclusive: 8.2 µM [inhibitor, partial curve, poor fit].
For O=C(NNC(=S)NCCc1ccccc1)c1ccc(Br)s1, the “activity change, negative = inhibition” value was inactive: 11.4% [at 46.1 µM].
In the case of Cc1cc(C(=O)CSc2nnc(-c3ccco3)o2)c(C)n1CC1COc2ccccc2O1 (configuration not stated), the “activity change, negative = inhibition” value is reported as inactive: 0.792%.
In the case of CN1CCN(C(=O)c2ccc3c(=O)n(Cc4ccco4)c(=S)[nH]c3c2)CC1, the “activity change, negative = inhibition” value is reported as inactive: -14.9%.
